Here are results for 15 targets from the supplement of paper PMC11732987, “Enantioselective OTUD7B fragment discovery through chemoproteomics screening and high-throughput optimisation” (Communications Chemistry, 2025).

The chains behind the UniProt entries cited, without tags or fusion partners. Where a name states a change or a piece, a line headed by the entry shows the natural chain unless it says otherwise.
UniProt O14981: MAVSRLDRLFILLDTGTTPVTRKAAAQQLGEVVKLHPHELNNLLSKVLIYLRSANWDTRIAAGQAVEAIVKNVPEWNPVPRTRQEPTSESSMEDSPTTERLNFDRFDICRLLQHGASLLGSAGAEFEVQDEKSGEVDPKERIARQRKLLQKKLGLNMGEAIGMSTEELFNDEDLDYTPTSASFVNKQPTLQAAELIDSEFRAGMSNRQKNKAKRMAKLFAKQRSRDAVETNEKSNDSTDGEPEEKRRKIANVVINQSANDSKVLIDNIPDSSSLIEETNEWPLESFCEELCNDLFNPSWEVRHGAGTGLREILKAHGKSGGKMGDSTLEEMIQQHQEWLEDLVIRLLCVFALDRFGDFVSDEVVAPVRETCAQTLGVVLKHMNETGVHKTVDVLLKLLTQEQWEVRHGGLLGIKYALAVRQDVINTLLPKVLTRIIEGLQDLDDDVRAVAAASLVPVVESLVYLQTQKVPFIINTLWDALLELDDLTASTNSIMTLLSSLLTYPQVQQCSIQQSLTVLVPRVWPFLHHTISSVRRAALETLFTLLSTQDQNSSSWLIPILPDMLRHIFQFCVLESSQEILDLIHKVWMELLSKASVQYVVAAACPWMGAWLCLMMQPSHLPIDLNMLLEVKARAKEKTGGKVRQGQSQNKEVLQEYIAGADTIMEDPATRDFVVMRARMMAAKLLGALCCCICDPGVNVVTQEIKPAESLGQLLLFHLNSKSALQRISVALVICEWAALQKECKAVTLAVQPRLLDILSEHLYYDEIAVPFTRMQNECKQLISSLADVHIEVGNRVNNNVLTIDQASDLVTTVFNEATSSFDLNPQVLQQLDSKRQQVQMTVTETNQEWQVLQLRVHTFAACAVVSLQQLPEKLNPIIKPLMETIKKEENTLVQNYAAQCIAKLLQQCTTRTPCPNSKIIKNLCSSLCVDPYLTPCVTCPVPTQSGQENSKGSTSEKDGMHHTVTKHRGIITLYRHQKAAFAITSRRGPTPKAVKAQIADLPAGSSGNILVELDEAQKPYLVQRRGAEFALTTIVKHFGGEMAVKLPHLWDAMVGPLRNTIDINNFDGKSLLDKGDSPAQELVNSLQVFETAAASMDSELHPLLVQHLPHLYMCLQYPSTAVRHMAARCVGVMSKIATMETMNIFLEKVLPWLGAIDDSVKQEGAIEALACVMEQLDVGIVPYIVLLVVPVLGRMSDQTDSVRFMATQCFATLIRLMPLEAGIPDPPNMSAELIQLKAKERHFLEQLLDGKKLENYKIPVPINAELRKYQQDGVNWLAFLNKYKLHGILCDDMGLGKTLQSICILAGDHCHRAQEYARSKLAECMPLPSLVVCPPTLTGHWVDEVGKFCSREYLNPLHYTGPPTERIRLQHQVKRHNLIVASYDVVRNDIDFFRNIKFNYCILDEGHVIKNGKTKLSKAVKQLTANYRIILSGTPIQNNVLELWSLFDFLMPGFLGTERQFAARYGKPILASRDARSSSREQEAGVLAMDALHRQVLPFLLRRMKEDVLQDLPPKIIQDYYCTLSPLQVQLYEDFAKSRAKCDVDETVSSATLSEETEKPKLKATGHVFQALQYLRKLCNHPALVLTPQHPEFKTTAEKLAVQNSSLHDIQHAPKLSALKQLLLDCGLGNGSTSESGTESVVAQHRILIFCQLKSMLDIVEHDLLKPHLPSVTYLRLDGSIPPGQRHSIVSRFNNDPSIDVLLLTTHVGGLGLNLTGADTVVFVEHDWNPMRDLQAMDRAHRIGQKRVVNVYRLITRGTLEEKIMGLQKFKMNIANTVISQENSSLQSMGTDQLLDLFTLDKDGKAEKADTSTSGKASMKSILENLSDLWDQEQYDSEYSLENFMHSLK
UniProt Q9Y6J0: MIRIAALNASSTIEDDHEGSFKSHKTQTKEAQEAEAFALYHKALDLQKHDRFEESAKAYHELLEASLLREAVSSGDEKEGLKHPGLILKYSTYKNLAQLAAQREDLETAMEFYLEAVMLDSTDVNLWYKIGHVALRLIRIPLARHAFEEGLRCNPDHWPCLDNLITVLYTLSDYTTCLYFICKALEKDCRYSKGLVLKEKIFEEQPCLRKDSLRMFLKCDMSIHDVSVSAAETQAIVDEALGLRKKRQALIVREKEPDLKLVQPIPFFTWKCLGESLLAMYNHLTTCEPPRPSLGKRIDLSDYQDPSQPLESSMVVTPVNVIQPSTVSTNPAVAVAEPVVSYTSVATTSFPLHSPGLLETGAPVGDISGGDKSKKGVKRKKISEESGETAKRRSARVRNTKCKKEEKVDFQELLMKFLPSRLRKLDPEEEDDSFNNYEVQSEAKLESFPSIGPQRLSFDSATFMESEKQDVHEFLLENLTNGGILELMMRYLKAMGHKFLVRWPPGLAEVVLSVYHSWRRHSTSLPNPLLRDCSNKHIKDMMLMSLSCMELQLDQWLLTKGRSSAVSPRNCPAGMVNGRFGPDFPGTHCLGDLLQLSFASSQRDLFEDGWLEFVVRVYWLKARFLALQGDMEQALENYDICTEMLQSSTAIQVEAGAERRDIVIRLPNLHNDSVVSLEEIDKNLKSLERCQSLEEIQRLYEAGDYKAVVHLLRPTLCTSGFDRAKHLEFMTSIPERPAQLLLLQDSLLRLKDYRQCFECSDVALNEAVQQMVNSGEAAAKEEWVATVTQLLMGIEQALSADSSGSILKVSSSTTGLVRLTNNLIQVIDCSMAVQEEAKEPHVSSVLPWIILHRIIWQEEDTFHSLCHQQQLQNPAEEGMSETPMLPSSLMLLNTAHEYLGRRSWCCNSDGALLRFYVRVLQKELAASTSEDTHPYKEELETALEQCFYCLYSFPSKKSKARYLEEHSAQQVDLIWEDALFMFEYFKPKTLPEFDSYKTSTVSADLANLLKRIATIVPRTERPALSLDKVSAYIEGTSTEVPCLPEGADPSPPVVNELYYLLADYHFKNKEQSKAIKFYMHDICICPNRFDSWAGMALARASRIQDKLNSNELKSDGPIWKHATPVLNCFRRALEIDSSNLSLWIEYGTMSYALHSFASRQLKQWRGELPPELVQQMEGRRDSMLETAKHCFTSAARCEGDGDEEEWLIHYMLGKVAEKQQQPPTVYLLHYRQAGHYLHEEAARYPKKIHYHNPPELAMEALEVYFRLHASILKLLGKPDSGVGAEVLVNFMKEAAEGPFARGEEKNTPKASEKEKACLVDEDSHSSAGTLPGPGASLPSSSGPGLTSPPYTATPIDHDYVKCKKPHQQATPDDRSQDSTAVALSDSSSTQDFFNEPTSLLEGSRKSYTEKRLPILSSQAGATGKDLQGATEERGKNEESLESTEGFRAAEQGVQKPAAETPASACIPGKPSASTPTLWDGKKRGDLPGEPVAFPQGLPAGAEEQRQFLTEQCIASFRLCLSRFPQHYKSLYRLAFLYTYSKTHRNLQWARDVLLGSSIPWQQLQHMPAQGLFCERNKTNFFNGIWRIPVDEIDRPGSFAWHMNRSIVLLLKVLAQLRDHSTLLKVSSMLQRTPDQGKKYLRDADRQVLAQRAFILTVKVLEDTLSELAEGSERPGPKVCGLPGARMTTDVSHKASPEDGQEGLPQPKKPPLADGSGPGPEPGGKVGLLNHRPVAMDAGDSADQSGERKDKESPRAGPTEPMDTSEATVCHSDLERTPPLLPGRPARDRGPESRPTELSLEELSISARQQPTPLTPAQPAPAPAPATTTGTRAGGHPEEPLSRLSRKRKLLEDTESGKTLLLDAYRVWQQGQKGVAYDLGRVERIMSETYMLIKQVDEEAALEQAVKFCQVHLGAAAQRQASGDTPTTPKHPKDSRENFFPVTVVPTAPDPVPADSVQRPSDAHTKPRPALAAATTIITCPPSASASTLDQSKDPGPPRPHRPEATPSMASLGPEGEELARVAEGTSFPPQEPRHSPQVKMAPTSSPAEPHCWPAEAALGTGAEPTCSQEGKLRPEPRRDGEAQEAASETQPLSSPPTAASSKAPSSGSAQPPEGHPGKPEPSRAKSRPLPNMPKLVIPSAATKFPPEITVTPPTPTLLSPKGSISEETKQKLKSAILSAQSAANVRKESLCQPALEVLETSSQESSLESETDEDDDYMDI
UniProt Q96LT7: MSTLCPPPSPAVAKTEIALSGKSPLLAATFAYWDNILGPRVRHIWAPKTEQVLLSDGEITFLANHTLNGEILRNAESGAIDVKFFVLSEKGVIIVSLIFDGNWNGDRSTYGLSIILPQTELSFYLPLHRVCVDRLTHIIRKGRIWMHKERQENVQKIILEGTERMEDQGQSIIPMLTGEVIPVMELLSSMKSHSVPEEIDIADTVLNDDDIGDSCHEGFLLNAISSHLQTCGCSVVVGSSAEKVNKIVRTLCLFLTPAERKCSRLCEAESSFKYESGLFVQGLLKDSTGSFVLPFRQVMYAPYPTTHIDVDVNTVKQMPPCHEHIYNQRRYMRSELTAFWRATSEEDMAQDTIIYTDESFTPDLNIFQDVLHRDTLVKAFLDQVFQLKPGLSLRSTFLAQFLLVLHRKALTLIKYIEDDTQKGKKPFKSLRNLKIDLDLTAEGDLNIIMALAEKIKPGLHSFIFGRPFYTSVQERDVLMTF
UniProt O75155: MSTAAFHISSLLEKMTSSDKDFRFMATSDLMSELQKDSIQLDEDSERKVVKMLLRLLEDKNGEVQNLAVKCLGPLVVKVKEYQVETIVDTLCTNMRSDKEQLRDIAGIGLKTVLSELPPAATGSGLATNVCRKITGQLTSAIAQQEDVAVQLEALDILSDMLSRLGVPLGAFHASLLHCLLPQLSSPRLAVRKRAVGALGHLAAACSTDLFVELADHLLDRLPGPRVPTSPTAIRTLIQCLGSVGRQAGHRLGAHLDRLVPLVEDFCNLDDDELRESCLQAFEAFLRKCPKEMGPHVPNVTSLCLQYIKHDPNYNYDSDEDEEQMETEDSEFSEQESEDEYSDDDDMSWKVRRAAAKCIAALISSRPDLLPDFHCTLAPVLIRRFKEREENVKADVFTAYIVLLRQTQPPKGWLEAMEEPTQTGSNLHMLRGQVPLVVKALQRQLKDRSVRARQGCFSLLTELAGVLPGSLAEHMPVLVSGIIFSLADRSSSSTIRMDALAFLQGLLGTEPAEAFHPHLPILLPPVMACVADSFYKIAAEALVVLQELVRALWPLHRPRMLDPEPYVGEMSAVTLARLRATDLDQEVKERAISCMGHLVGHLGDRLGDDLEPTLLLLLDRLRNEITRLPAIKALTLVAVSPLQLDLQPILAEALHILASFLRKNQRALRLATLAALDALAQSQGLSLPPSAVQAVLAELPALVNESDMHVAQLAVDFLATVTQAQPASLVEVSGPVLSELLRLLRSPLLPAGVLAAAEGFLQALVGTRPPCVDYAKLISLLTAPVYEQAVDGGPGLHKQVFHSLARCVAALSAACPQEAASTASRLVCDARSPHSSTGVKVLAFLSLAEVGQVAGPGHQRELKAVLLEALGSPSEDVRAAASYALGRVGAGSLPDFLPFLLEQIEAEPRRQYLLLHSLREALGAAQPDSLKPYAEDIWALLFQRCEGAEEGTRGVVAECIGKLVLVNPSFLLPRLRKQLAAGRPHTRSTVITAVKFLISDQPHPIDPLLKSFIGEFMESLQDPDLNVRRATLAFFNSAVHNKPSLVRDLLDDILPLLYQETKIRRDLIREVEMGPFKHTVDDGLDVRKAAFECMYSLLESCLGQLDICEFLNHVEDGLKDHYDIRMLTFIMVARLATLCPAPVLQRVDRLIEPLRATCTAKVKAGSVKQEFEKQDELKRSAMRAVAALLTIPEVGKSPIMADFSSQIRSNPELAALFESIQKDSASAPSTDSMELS
UniProt P17655: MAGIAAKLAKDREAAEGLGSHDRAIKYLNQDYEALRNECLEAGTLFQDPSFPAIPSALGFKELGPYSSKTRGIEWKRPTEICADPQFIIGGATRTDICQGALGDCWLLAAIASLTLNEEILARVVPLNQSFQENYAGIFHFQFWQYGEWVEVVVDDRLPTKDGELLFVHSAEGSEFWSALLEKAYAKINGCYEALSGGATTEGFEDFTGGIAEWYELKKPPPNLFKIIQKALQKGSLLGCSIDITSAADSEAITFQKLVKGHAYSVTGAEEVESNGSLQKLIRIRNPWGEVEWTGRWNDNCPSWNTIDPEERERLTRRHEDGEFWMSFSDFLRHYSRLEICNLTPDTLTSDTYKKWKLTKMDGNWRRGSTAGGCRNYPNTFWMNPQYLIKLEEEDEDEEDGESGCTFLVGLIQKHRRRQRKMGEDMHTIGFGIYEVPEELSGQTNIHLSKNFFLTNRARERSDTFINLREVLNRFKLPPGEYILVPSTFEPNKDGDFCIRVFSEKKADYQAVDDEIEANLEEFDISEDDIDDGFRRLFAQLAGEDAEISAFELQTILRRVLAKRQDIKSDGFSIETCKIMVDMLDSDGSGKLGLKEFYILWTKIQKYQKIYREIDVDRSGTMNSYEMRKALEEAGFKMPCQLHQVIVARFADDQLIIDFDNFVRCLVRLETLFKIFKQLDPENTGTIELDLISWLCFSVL

This is one part of the list. The data scatter; read single values as rough.

Compound in experiment [1]: ClCC(=O)N[C@@H]1CCCc2ccccc12
In words: log2 mean competition ratio of IA-DTB cysteine labelling (DMSO/compound) (log2 ratio); higher = stronger cysteine engagement by compound. To be noted: treatment time: 4 h, cell line lysate: HEK293T. As for the experimental part:
(§1)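 IA-DTB competitive cysteine chemoproteomics in HEK293T RIPA lysate. Lysates were treated with compound 29 or 30 at 50 or 200 µM for 4 h, then IA-DTB (500 µM, 1 h), trypsin-digested, NeutrAvidin-enriched and analysed by diaPASEF. Competition ratio = intensity DMSO / intensity compound (n=4 treated, n=64 DMSO); binding: mean log2 CR ≥ 1 and p ≤ 0.05 plus QC filters. Target is the cysteine site.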

Compound in experiment [2]: ClCC(=O)N[C@H]1CCCc2ccccc12
Described as above. Conditions: treatment time: 4 h, cell line lysate: HEK293T. On the procedure:
as §1

CAMK2G C7 (UniProt Q13555): the “log2 mean competition ratio” value in experiment [1] (50 µM) was 0.0482; in experiment [1] (200 µM) it was 0.147; in experiment [2] (50 µM), 0.205; in experiment [2] (200 µM) it was 0.324.

On to CBR4 C55 (UniProt Q8N4T8), for which the “log2 mean competition ratio” value in experiment [1] (50 µM) is -0.115; in experiment [1] (200 µM) it was -0.27; in experiment [2] (50 µM) it was -0.248; in experiment [2] (200 µM) it was -0.128.

As to C12orf29 C294 (UniProt Q8N999), the “log2 mean competition ratio” value is -0.156 in experiment [1] (50 µM), 0.0472 in experiment [1] (200 µM), 0.306 in experiment [2] (50 µM) and 0.246 in experiment [2] (200 µM).

As for CAD C736, the “log2 mean competition ratio” value in experiment [1] (50 µM) is -0.0101; in experiment [1] (200 µM), -0.0587; in experiment [2] (50 µM) it was 0.321; in experiment [2] (200 µM), -0.204.

Turning to BTAF1 C914 (UniProt O14981), the “log2 mean competition ratio” value is 0.405 in experiment [1] (50 µM), 0.963 in experiment [1] (200 µM), 0.226 in experiment [2] (50 µM) and 0.629 in experiment [2] (200 µM).

For BRCA1 C1251 (UniProt P38398), the “log2 mean competition ratio” value in experiment [1] (50 µM) was -0.263; in experiment [1] (200 µM), -0.165; in experiment [2] (50 µM), -0.0542; in experiment [2] (200 µM) it was -0.209.

As for BRME1 C79, the “log2 mean competition ratio” value in experiment [1] (50 µM) was 0.29; in experiment [1] (200 µM), 0.0592; in experiment [2] (50 µM), -0.0807; in experiment [2] (200 µM), 0.272.

Take BRWD3 C782: the “log2 mean competition ratio” value in experiment [1] (50 µM) was -0.335; in experiment [1] (200 µM) it was 0.105; in experiment [2] (50 µM) it was -0.331; in experiment [2] (200 µM), 0.35.

For the target CABIN1 C207 (UniProt Q9Y6J0), the “log2 mean competition ratio” value in experiment [1] (50 µM) is 0.185; in experiment [1] (200 µM) it was 0.0977; in experiment [2] (50 µM), -0.0932; in experiment [2] (200 µM) it was 0.0887.

On to CADPS2 C168, for which the “log2 mean competition ratio” value in experiment [1] (50 µM) was 0.114; in experiment [1] (200 µM) it was 0.0737; in experiment [2] (50 µM) it was 0.0381; in experiment [2] (200 µM), -0.133.

In the case of C9orf72 C5 (UniProt Q96LT7), the “log2 mean competition ratio” value in experiment [1] (50 µM) is -0.191; in experiment [1] (200 µM), -0.0872; in experiment [2] (50 µM) it was 0.139; in experiment [2] (200 µM), 0.0183.

Regarding CAND2 C1139 (UniProt O75155), the “log2 mean competition ratio” value is 0.0626 in experiment [1] (50 µM), -0.221 in experiment [1] (200 µM), -0.278 in experiment [2] (50 µM) and -0.179 in experiment [2] (200 µM).

Consider CAPN2 C374 (UniProt P17655), for which the “log2 mean competition ratio” value in experiment [1] (50 µM) was determined as 0.0378; in experiment [1] (200 µM), 0.192; in experiment [2] (50 µM), 0.112; in experiment [2] (200 µM) it was 0.581.

Take CAMKMT C25 (UniProt Q7Z624): the “log2 mean competition ratio” value in experiment [1] (50 µM) was 0.0176; in experiment [1] (200 µM), 0.0588; in experiment [2] (50 µM) it was -0.0723; in experiment [2] (200 µM), 0.0386.

Regarding C15orf39 C483 (UniProt Q6ZRI6), the “log2 mean competition ratio” value in experiment [1] (50 µM) was -0.0589; in experiment [1] (200 µM), 0.086; in experiment [2] (50 µM), 0.189; in experiment [2] (200 µM), 0.152.
